{"source": "paper doi:10.1101/2023.04.09.536153", "binders": {"B1": {"name": "CUL4B, Q13620 1-913 (protein)", "chain": "MMSQSSGSGDGNDDEATTSKDGGFSSPSPSAAAAAQEVRSATDGNTSTTPPTSAKKRKLNSSSSSSSNSSNEREDFDSTSSSSSTPPLQPRDSASPSTSSFCLGVSVAASSHVPIQKKLRFEDTLEFVGFDAKMAEESSSSSSSSSPTAATSQQQQLKNKSILISSVASVHHANGLAKSSTTVSSFANSKPGSAKKLVIKNFKDKPKLPENYTDETWQKLKEAVEAIQNSTSIKYNLEELYQAVENLCSYKISANLYKQLRQICEDHIKAQIHQFREDSLDSVLFLKKIDRCWQNHCRQMIMIRSIFLFLDRTYVLQNSMLPSIWDMGLELFRAHIISDQKVQNKTIDGILLLIERERNGEAIDRSLLRSLLSMLSDLQIYQDSFEQRFLEETNRLYAAEGQKLMQEREVPEYLHHVNKRLEEEADRLITYLDQTTQKSLIATVEKQLLGEHLTAILQKGLNNLLDENRIQDLSLLYQLFSRVRGGVQVLLQQWIEYIKAFGSTIVINPEKDKTMVQELLDFKDKVDHIIDICFLKNEKFINAMKEAFETFINKRPNKPAELIAKYVDSKLRAGNKEATDEELEKMLDKIMIIFRFIYGKDVFEAFYKKDLAKRLLVGKSASVDAEKSMLSKLKHECGAAFTSKLEGMFKDMELSKDIMIQFKQYMQNQNVPGNIELTVNILTMGYWPTYVPMEVHLPPEMVKLQEIFKTFYLGKHSGRKLQWQSTLGHCVLKAEFKEGKKELQVSLFQTLVLLMFNEGEEFSLEEIKQATGIEDGELRRTLQSLACGKARVLAKNPKGKDIEDGDKFICNDDFKHKLFRIKINQIQMKETVEEQASTTERVFQDRQYQIDAAIVRIMKMRKTLSHNLLVSEVYNQLKFPVKPADLKKRIESLIDRDYMERDKENPNQYNYIA"}}, "target": "DCAF1 (human (endogenous in HEK293T)), Q9Y4B6", "assay": "affinity purification with mass spectrometry", "conditions": "remark: other sources report otherwise", "note": "No constants are given. Whether binding was seen depends on the method and setting. Binding seen in cells or lysates may run through a third protein. Here binding means that the protein was enriched with, or labelled near, the bait; the list need not be complete.", "data": [{"binder": "B1", "values": [{"measurement": "binding", "value": "binds"}]}]}
